From patent US20040091907A1
No constants are given. Whether binding was seen depends on the method and setting. In cells and extracts the contact can be indirect. Some results given as binding are weak or reduced against the parent protein; the word gives no strength.

Amino acid sequences for entries named in this document (tags omitted).
UniProt O96013: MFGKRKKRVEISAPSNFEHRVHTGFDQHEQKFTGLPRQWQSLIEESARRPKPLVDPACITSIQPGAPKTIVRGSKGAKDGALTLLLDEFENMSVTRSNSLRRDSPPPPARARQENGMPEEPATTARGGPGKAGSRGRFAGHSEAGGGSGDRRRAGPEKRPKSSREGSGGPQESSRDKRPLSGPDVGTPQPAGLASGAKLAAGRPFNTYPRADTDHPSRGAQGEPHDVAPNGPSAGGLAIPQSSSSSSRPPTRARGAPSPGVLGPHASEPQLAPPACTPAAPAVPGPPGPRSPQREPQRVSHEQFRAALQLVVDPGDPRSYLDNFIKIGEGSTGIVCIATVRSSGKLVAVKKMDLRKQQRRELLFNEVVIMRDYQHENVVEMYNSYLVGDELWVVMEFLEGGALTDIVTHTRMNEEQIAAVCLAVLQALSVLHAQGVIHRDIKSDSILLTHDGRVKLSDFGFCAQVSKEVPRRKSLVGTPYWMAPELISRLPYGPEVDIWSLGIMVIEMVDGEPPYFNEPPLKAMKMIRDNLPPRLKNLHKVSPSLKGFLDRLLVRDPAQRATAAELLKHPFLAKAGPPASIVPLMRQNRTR

Columns and labels:
[1] = biological target: T1, endogenous GEF-H1 (human) (UniProt Q92974); test: co-immunoprecipitation with PAK4 antibody on Protein G beads from A549, HCT116 and H1299 lysates
T1 sequence (looked up): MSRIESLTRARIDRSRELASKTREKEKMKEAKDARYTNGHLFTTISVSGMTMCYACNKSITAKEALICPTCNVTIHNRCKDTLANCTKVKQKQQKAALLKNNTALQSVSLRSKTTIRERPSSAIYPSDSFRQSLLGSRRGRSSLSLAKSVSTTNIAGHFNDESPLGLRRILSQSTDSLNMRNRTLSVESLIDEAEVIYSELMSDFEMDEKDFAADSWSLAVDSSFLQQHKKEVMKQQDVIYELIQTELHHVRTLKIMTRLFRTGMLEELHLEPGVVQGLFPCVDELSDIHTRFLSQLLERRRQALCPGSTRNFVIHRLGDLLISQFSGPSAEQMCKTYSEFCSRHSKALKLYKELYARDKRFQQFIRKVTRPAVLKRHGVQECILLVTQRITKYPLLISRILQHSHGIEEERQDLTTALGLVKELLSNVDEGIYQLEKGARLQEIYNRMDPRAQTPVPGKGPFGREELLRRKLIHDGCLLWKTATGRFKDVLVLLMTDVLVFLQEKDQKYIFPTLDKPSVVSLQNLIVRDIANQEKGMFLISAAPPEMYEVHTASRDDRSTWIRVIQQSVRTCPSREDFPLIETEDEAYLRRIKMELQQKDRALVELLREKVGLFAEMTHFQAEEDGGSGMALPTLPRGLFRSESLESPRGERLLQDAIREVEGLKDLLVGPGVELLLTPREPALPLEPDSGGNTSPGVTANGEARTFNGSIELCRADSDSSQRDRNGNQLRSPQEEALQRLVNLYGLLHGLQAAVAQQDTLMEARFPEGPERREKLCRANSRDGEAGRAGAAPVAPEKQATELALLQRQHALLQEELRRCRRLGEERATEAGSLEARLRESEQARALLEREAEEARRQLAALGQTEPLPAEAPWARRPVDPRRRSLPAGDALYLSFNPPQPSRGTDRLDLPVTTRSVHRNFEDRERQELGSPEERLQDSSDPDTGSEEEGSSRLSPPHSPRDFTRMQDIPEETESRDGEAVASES

[2] = biological target: T1, endogenous GEF-H1 (human); test: co-immunoprecipitation with anti-PAK4 from A549, HCT116 and H1299 lysates, GEF-H1 Western blot
[3] = biological target: T1, endogenous GEF-H1 (human); test: co-immunoprecipitation with anti-PAK4 from human tumour cell lysates, GEF-H1 Western blot

- binding [1]: binds
- binding [2]: binds
- binding [3]: binds
Substance: endogenous PAK4 (from UniProt O96013 1-591) (enzyme)
